Reference: PubChem BioAssay AID652054 (National Center for Advancing Translational Sciences (NCATS), 2013)
Out of some 360,000 compounds screened, about 9,100 (2.5%) were called active. The inconclusive results got no clear call from the source; some entries with a clear call stand among them for comparison. Rule as the data show it: active = max response below about -50%; inconclusive = no clear call, values can overlap the other calls; inactive = above that.

The chains behind the UniProt entries cited, without tags or fusion partners.
UniProt P35462, whole entry, looked up: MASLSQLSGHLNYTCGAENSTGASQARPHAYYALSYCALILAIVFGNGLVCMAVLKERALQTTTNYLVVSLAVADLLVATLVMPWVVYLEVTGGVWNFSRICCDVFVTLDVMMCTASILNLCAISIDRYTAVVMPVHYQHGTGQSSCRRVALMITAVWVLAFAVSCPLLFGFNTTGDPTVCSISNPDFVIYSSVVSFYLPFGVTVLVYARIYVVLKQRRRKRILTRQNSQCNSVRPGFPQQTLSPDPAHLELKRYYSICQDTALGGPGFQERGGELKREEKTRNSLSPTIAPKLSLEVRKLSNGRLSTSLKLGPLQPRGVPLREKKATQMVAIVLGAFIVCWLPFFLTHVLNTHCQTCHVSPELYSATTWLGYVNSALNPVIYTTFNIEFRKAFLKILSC

Molecular target: D(3) dopamine receptor (Homo sapiens) (UniProt P35462)
Test: qHTS of D3 Dopamine Receptor Antagonist: qHTS
Settings: D3R cells, DiscoveRx beta-arrestin luminescence, antagonist mode; active compounds read low
Outline: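 Cells expressing the human receptor were seeded at 1500 cells/well, incubated overnight at 37 degrees C in 5% CO2, then exposed to library compounds with dopamine controls for 90 minutes at 37 degrees C before luminescent detection.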
% is scaled to controls: 0 for no effect and ±100 for the full control effect.

| SMILES | max response, negative = inhibition |
| --- | --- |
| Cc1ccc(CN2CCN(c3ccccn3)CC2)s1 | inconclusive: -36.6% |
| COc1ccc2oc(=O)c(-c3nnc(NCc4ccco4)s3)cc2c1 | inconclusive: -33.6% |
| CC(=O)NS(=O)(=O)c1ccc(NC(=O)c2cc(-c3ccc(C)c(C)c3)nc3ccccc23)cc1 | inconclusive: -41.7% |
| O=C(O)c1cc(-c2ccco2)[nH]n1 | inconclusive: -32.9% |
| CC(C)c1ccc(S(=O)(=O)c2cnc(=S)[nH]c2N)cc1 | active: -59.3% |
| Cc1ccccc1NC(=O)c1ccc(NS(=O)(=O)c2cc(C(C)(C)C)cc(C)c2C)cc1 | active: -57% |
| COc1ccc(OC)c(/C=N/NC(=O)CSc2cc(C)nc3c(OC)cccc23)c1 | inconclusive: -30.9% |
| CC(C)CCNC(=O)COc1ccc2c(c1)C(=O)CC(C)(C)O2 | inactive: 4.05% |
| COc1ccc(C(C)=O)cc1COC(=O)c1ccc(OCc2c(C)noc2C)cc1 | inactive: 8.61% |
| O=C(COC(=O)CNC(=O)c1ccccc1)NC1CCCCC1 | inconclusive: -43.5% |
| COc1ccc(Br)cc1[C@H]1[C@@H]2C=CCC[C@@]2(C)C(=O)N1Cc1ccccc1 | active: -55.4% |
| CC1CCN(c2ccc(/C=C(\C#N)c3nn(-c4ccccc4)c(N)c3C#N)cc2[N+](=O)[O-])CC1 | inconclusive: -39.7% |
| CCN1C(=O)[C@@H]2[C@@H](c3ccc(-c4ccc(F)cc4)c(OC)c3)N3CCC[C@@]3(C(=O)OC)[C@@H]2C1=O | inconclusive: -33.9% |
| COc1cc(OC)nc(NC(=O)COC(=O)c2cccc(Cl)c2)n1 | inactive: 6.35% |
| COc1ccc(CC(=O)Nc2ncc([N+](=O)[O-])s2)cc1OC | inconclusive: -32.2% |
| CCn1c(SCC(=O)NC2CCCC2)nnc1C(C)C | inactive: 4.47% |
| O=C(C1=C[C@@H](c2csc3ccccc23)C[C@@H](OCCCCO)O1)N1CCN(Cc2ccc3c(c2)OCO3)CC1 | inconclusive: -39.8% |
| C/C(CC(=O)Nc1cccnc1)=N\NC(=O)C(=O)Nc1cccc(C)c1 | inconclusive: -36.6% |
| COc1ccc(CC(=O)OCC(=O)NC(=O)NC2CCCCC2)cc1 | inconclusive: -31.8% |
| Cc1noc(C)c1C(=O)Nc1ccc(F)cc1F | inconclusive: -44% |
| O=C(/C=C/c1ccc(Cl)cc1)N(Cc1ccccc1)c1ccccn1 | inconclusive: -32.6% |
| CCCC(=O)Nc1nnc(-c2ccco2)s1 | active: -66.4% |
| CSc1ccc(CN2CCN(Cc3ccc([N+](=O)[O-])cc3)CC2)cc1 | inconclusive: -36% |
| Cc1ccc(NC(=O)C2CCN(C(=O)c3ccccc3C)CC2)nc1 | inactive: 15.4% |
| COc1ccc(C(CNC(=O)c2cc3ccccc3cc2OC)N2CCCC2)cc1 (centres undefined) | active: -56.2% |
| CN1CCN(Cc2c(O)ccc3cc(-c4ccccn4)c(=O)oc23)CC1 | inactive: 5.97% |
| COC(=O)/C=C/c1cnc[nH]1 | inconclusive: -39% |

Shown tab-delimited: entries from further up
SMILES	max response, negative = inhibition
COc1ccc(CC(=O)OCC(=O)NC(=O)NC2CCCCC2)cc1	inconclusive: -31.8%
Cc1noc(C)c1C(=O)Nc1ccc(F)cc1F	inconclusive: -44%
O=C(/C=C/c1ccc(Cl)cc1)N(Cc1ccccc1)c1ccccn1	inconclusive: -32.6%
CCCC(=O)Nc1nnc(-c2ccco2)s1	active: -66.4%

(continued)

| SMILES | max response, negative = inhibition |
| --- | --- |
| O=C1c2ccccc2NC(c2cccc(Cl)c2)N1N=C1CCCCCC1 (centres undefined) | inactive: -11.4% |
| Cc1cc(C)n2ncc(/C(N)=N/OC(=O)Nc3ccc(Cl)cc3)c2n1 | inconclusive: -39.7% |
| CCCN(CCC)CCCNC(=O)c1cn(CCOC)c(=O)c2c1c1ccccc1n2C | inactive: -11.4% |
| O=C1NC(=S)S/C1=C\C=C\c1ccc([N+](=O)[O-])o1 | inconclusive: -49.2% |
| COc1ccc2c(c1)C(C)=CC(C)(C)N2S(=O)(=O)c1ccc(Br)cc1 | inconclusive: -47.1% |
| COc1ccc(NC(=O)CSc2nc(-c3ccncc3)nn2CC(=O)N2CCCC2)cc1 | inactive: 31.6% |
| CNC(=S)N/N=C/c1cn(CCOc2ccc(OC)cc2)c2ccccc12 | inactive: -10.3% |
| Cc1cccc(NC(=S)/N=C(\N)Nc2nc(C)c3ccc(C)cc3n2)c1 | inactive: -0.879% |
| CCOc1ccc(S(=O)(=O)N2CCCC(C(=O)NCc3cccnc3)C2)cc1 (centres undefined) | inactive: 19.5% |
| COc1ccc(OC)c(NC(=S)N2CCc3ccccc3C2)c1 | inconclusive: -32.5% |
| Oc1cccc(CN2CCN(c3ncc(Cc4ccccc4)cn3)CC2)c1 | inconclusive: -43.5% |
| COc1cccc(NC(=O)N2CCCC(C(=O)Nc3ccccc3OC)C2)c1 (centres undefined) | inconclusive: -39.1% |
| O=C1/C(=C\c2cccc([N+](=O)[O-])c2O)SC(=S)N1Cc1ccccc1 | inconclusive: -39.7% |
| COc1ccc(Nc2nnc(SCC(=O)N(CC(C)C)C3CCS(=O)(=O)C3)s2)cc1 (centres undefined) | inconclusive: -32.5% |
| Cc1[nH][nH]c(=O)c1C(c1c(C)[nH][nH]c1=O)c1cn(Cc2ccc(Cl)c(Cl)c2)c2ccccc12 | inactive: -29.6% |
| Cc1ccc(SCC(=O)NNC(=O)c2ccccc2)cc1C | active: -69.9% |
| CC(=O)c1cccc(CN2CCC(C(=O)Nc3cccc(-c4ccn[nH]4)c3)CC2)c1 | inactive: 0% |
| CN(C)CCCNC(=O)C[C@H]1C[C@H](C(=O)N2CCCCC2)[C@@]2(CCc3ccccc3)c3[nH]c4ccc(Cl)cc4c3CCN2C1=O | inconclusive: -48.5% |
| CCOC(=O)C1CCN(Cc2cc(C(C)C)c(O)c(C(C)C)c2)CC1 | active: -68.6% |
| CC(C)C1=NN2C(=N)CC(=O)N=C2S1 | active: -62.8% |
| O=C1CCCc2c1cc(C(=O)Nc1ccc(Br)cn1)c(=O)n2-c1ccccc1 | inconclusive: -48.3% |
| CCCCC[n+]1ccn(C2=C([O-])c3ccccc3C(=O)/C2=N\S(=O)(=O)c2ccccc2)c1 | inconclusive: -35.8% |
| CCOC(=O)c1sc2nc3c(SCCC#N)cc(C(=O)c4cc(F)ccc4O)cn3c(=O)c2c1C | inactive: -5.68% |
| COc1ccccc1S(=O)(=O)Cc1ccc(C(=O)NCc2cccnc2)o1 | inconclusive: -40.5% |
| CCCn1c(=O)c(C(=O)NCc2ccccc2)c(O)c2ccccc21 | inactive: 23.5% |
| COc1ccccc1/C=C/CN1CCCC(CCC(=O)NCc2ccc(F)c(F)c2)C1 (centres undefined) | active: -66.2% |
| COc1ccc(Cl)cc1NC(=O)CSc1nnc(CN2CCOCC2)n1-c1ccc(Cl)cc1 | inconclusive: -46.8% |
